Assay results reported in PubChem BioAssay AID2685 (National Center for Advancing Translational Sciences (NCATS), 2010).
In all, about 320,000 compounds went through this assay and about 2,100 (0.66%) were called active. This list was built around the results that the source calls inconclusive (neither active nor inactive); the mix of calls is not that of the screen. The call rests on the fitted dose curve; in most records, active means well fitted inhibition curve with a large enough effect in the signal ratio, with a control signal flat (not every such curve was filed as active); inconclusive means small, poorly fitted or top-dose-only effect, or effect the other way, or a change in a side signal; inactive means flat fitted curve, though single readings scatter; the % refers to the signal ratio. Potencies of inconclusive entries are doubtful fits and often do not repeat.
On the % scale 0 is the no-effect control and ±100 the full control effect; potency means the concentration at half of the fitted maximal effect.

Assay: qHTS Assay for Lipid Storage Modulators in Drosophila S3 Cells
Settings: BODIPY lipid droplet fluorescence, 18-24 h, cells fed with added oleic acid; lipid storage change, negative = inhibition: at 46.1 µM (top of the series) unless noted
Method in brief: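 Drosophila S3 cells loaded with oleic acid (400 uM, as added) and compounds at several concentrations; lipid droplets imaged by 488-nm laser-scanning cytometry, 500–530 nm intensity and object ratio to cell channel. Percent activity normalized to 20 uM Triacsin C.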
With `O=C(Cn1c2ccc(F)cc2c2nc3n(c(=O)c21)CCS3)Nc1ccc(Cl)cc1F` the lipid storage change, negative = inhibition was inconclusive: -56.4%.
For `COc1cnc(SCc2c(Cl)cccc2Cl)nc1Cl`, the lipid storage change, negative = inhibition was inconclusive: -2.15%.
For `COCCn1nnnc1C(c1ccc(OC)cc1)N1CCC(C)CC1` (centres undefined), the lipid storage change, negative = inhibition was inconclusive: 32%.
For `O=C(O)c1cccc(S(=O)(=O)N2CCN(S(=O)(=O)c3ccc4ccccc4c3)CC2)c1`, the lipid storage change, negative = inhibition was “inconclusive”.
For `NNC(=O)c1ccc(OCC2CC(c3ccc(Cl)cc3)=NO2)cc1` (centres undefined), the lipid storage change, negative = inhibition was inconclusive: 33.2%.
For `CC1=Nn2c(nnc2-c2ccccc2F)SC1`, the lipid storage change, negative = inhibition was inconclusive: -2.08%.
In the case of `CCc1cccc(OCCn2nc(C(=O)O)c3ccccc3c2=O)c1`, the lipid storage change, negative = inhibition is reported as inconclusive: 46.7%.
In the case of `CC(=O)c1ccc(N2C(=O)C3C4C=CC(CC4)C3C2=O)cc1` (centres undefined), the lipid storage change, negative = inhibition is reported as inconclusive: -0.807%.
For `CN(c1ccc(C(=O)Nc2ccc(Cl)cn2)cc1)S(=O)(=O)c1ccccc1`, the Potency was inconclusive: 0.58 µM [falling, single point].
With `O=C(N/C(=C\c1ccccc1)C(=O)N1CCCCC1)c1ccc(Br)o1` the “outcome” value was “inactive [at 0.369 µM]”.
With `Cc1csc(=O)n1CC(=O)OCC(=O)NCc1ccc(F)cc1` the lipid storage change, negative = inhibition was inconclusive: -71.2%.
With `Cc1nn(CCC(=O)NNC(=S)Nc2ccc(F)cc2)c(C)c1Br` the lipid storage change, negative = inhibition was inconclusive: 19.2%.
With `COc1ccc(C)cc1NC(=O)c1ccc(CN2CCN(c3ccccc3)CC2)cc1` the lipid storage change, negative = inhibition was inconclusive: 36.2%.
For `Cc1ccc(OCc2nc3c4c(ncn3n2)-c2ccccc2CC42CCCC2)cc1`, the Potency was inconclusive: 20.6 µM [activator, single point].
In the case of `O=C(O)c1ccccc1Sc1c([N+](=O)[O-])cc(C(F)(F)F)cc1[N+](=O)[O-]`, the lipid storage change, negative = inhibition is reported as inconclusive: 8.96%.
With `COc1ccc(C(=O)NNC(=O)CCC(=O)Nc2ccc(C)cc2C)cc1` the lipid storage change, negative = inhibition was inconclusive: -89.9%.
For `O=C(Nc1cccc(-c2nc3cc(Cl)ccc3o2)c1)C1CCCO1` (centres undefined), the lipid storage change, negative = inhibition was inconclusive: 49.3%.
With `CCN1CCN(CC(=O)NC2CCCC2)C(=O)C1=O` the lipid storage change, negative = inhibition was inconclusive: 8.32%.
In the case of `CC1=C(C(=O)OCc2cc(C)on2)N2C(=O)[C@@H](NC(=O)OCc3cc(C)on3)[C@H]2SC1`, the lipid storage change, negative = inhibition is reported as inconclusive: 49.9%.
With `CC(C)CNC(=O)COC(=O)c1ccc(Cl)c(S(N)(=O)=O)c1` the lipid storage change, negative = inhibition was inconclusive: 65.6%.
For `Cc1cccc(N(C(=O)c2nsc(Cl)c2Cl)C(C(=O)NC2CCCC2)c2ccc(O)cc2)c1C` (centres undefined), the lipid storage change, negative = inhibition was inconclusive: 25.2%.
With `CC1CN(C(=O)N(C)C)CCN1C(=O)N(C)C` (centres undefined) the Potency was inconclusive: 29.1 µM [falling, partial curve, poor fit].
In the case of `O=C(CN1C(=O)C2CC=CCC2C1=O)Nc1nnc(SCc2ccc(Cl)cc2)s1` (centres undefined), the lipid storage change, negative = inhibition is reported as inconclusive: 37.5%.
In the case of `Fc1ccccc1C(c1nnnn1Cc1ccc2c(c1)OCO2)N1CCN(Cc2ccco2)CC1` (centres undefined), the Potency is reported as inconclusive: 29.1 µM [activator, single point].
For `O=C(NCCc1ccc(F)cc1)N1CCOCC1`, the lipid storage change, negative = inhibition was inconclusive: -66.7%.
For `COC(=O)c1cc(S(=O)(=O)NCc2ccc3c(c2)OCO3)c[nH]1`, the lipid storage change, negative = inhibition was inconclusive: 33.9%.
For `COc1ccc(N2CCN(C(=O)CSc3nnc(-c4ccc5[nH]c(C)c(C)c5c4)o3)CC2)cc1`, the lipid storage change, negative = inhibition was inconclusive: 19.1%.
For `O=C(O)CCCNc1c(C(=O)Nc2ccc(Cl)cc2)cc([N+](=O)[O-])cc1[N+](=O)[O-]`, the lipid storage change, negative = inhibition was inconclusive: -11%.
With `C/C(N)=C(/C#N)C(=O)CSc1nnc(Nc2cccc(C)c2C)s1` the Potency was inconclusive: 18.4 µM [falling, partial curve, poor fit].
With `Cc1ccc(S(=O)(=O)N2CCN(C(=O)Cn3c(=O)cnc4ccccc43)CC2)cc1` the lipid storage change, negative = inhibition was inconclusive: 15.2%.
For `O=C(CCNC(=O)c1ccc(Cl)cc1)NCC(c1ccco1)N1CCCCC1` (centres undefined), the lipid storage change, negative = inhibition was inconclusive: -10.9%.
In the case of `O=C(CN1CCN(C(=O)C2CCC2)CC1)Nc1ccc(F)cc1`, the Potency is reported as inconclusive: 0.146 µM [activator, full curve].
For `COc1cccc(OC2OC3COC(C)(C)OC3C(O)C2NC(C)=O)c1` (centres undefined), the lipid storage change, negative = inhibition was inconclusive: 23.6%.
With `Fc1ccccc1Cc1noc(CN(Cc2ccccn2)CC2CCCO2)n1` (centres undefined) the lipid storage change, negative = inhibition was inconclusive: -7.52%.
For `O=C(NC1CCCC1)C(c1ccc(N2CCOCC2)cc1)N(Cc1ccccc1)C(=O)c1ccco1` (centres undefined), the lipid storage change, negative = inhibition was inconclusive: 10.2%.
With `O=C(NNc1nc2ccccc2s1)Nc1ccccc1` the Potency was inconclusive: 25.9 µM [activator, single point].
For `CCn1c(=O)cc(SCC(=O)NCC2CCCO2)c2ccccc21` (centres undefined), the Potency was inconclusive: 3.26 µM [activator, single point].
With `CN(C(=O)c1ccc(=O)[nH]c1)C1(C(=O)NC2CCCCC2)CCCCC1` the “lipid storage change, negative = inhibition” value was inactive: -8.5%.
In the case of `Nc1nc(SCC(=O)Nc2ccc(Cl)c([N+](=O)[O-])c2)n[nH]1`, the Potency is reported as inconclusive: 18.4 µM [falling, single point].
